Literature values, collected in patent US7387895B2, “Monoclonal antibody specific for PPAR gamma, hydridoma cell line producing the same, and method for detecting regulator related to diseases, including inflammation, cancer and metabolic diseases, using the same” (Korea Research Institute of Bioscience and Biotechnology, priority 2003, dated 2008).
For at least one compound, name, drawing or mass did not settle the structure.

What was measured:
atheromatous lesion = settings: LDL receptor-deficient rats; cited from earlier work
cytokine production = settings: PPAR gamma+/+, +/- or -/- embryonic stem cells; cited from earlier work
[1] = rats deficient in fat tissues; cited from earlier work

Row | Compound | formation of atheromatous lesion (atheromatous lesion) | cytokine production in embryonic stem cells (cytokine production) | hyperglycemia [1] | insulin sensitivity [1]
1 | CN(CCOc1ccc(CC2SC(=O)NC2=O)cc1)c1ccccn1 (stereo not shown) [rosiglitazone] | inhibiting the formation of atheromatous lesion | inhibited cytokine production |  | 
2 | Cc1c(C)c2c(c(C)c1O)CCC(C)(COc1ccc(CC3SC(=O)NC3=O)cc1)O2 (stereo not shown) [troglitazone] |  |  | reduces hyperglycemia | increases insulin sensitivity
